Drawing on article PMC2662408, this text covers binding for 4 substances.

Amino acid sequences for entries named in this document (tags omitted). A change or cut given only in a name is not applied to a line headed by its entry.
UniProt P45975: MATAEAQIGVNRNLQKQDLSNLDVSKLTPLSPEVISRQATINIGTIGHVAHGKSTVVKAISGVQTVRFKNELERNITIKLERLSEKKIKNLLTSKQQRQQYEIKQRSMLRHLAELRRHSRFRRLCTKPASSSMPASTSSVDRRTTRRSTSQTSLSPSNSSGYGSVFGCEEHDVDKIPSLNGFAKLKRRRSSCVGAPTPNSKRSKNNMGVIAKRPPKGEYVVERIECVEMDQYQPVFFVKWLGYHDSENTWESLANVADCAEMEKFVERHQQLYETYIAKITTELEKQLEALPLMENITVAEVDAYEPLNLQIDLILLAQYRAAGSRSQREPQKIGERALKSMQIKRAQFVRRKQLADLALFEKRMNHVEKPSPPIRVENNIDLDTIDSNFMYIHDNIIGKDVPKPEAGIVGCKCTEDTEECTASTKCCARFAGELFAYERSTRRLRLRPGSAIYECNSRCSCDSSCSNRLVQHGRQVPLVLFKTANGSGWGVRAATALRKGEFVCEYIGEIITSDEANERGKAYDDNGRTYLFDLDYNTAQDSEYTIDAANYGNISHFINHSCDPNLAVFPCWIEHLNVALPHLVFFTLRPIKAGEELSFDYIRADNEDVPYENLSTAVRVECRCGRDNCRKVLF
UniProt Q02748: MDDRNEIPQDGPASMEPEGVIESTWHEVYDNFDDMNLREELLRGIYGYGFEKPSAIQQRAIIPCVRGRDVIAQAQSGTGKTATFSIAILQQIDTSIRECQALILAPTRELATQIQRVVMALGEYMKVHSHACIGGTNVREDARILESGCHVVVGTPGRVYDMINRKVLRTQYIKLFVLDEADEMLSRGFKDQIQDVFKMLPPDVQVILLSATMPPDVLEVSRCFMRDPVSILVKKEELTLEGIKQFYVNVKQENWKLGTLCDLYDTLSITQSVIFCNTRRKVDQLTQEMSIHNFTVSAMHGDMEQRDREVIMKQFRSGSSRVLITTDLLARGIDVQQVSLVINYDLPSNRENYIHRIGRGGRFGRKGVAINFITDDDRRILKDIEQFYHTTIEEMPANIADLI

The experiment has as its target T1, FLAG tagged HP1c (Drosophila) (UniProt Q9VCU6).
T1 sequence: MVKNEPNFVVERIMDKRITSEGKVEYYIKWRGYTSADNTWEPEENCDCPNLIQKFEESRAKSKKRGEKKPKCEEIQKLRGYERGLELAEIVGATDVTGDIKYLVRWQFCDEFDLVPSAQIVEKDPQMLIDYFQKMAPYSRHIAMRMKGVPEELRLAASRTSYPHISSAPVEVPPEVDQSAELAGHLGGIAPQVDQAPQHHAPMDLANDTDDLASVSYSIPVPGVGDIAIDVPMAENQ
Nature of the experiment: affinity purification with mass spectrometry; nuclear extract of SL2 cells stably expressing HP1cFLAG on M2 anti-FLAG agarose, 2 hours at 4°C, washed with CB300, eluted with FLAG-peptide, SDS-PAGE, GeLC MS/MS and LC MS/MS; non-transfected cells as control.

These are yes or no findings as the source states them, for the method shown. In cells and extracts the contact can be indirect. These calls come from enrichment with a bait or labelling near it, and not all partners need be listed. A no says only that the protein was not detected with the bait. Where a sequence is shown, tags or fusion partners need not be part of it.

In the case of Su(var)3–9 (from UniProt P45975 1-635), the binding entry is recorded as “no binding”. Next, “Row (Drosophila (endogenous in SL2 cells))”: “binds”. Next, “Woc (Drosophila (endogenous in SL2 cells))”: “binds”; eIF4a (from UniProt Q02748 1-403): “binds”.
